Publication PMC7213743, “ArdC, a ssDNA-binding protein with a metalloprotease domain, overpasses the recipient hsdRMS restriction system broadening conjugation host range”
Results are given in words; binding and its absence hold for the method and conditions named. In cells and extracts the contact can be indirect. Here binding means that the protein was enriched with, or labelled near, the bait; the list need not be complete.

Biological target: ArdC mutant E229A (plasmid R388 (IncW))
Test: affinity purification with mass spectrometry; purified ArdC E229A used to co-purify proteins from P. putida KT2440 cell lysate by pull-down; the co-eluted band was cut from the gel and identified by mass spectrometry (trypsin, MASCOT); only the target purified

B1: PP_0941 (protein, UniProt Q88PA9 1-173)
chain: MVDSNDDAFDGEKSKTQIKRELHALVELGERLTTLKADTLARLPLTDELRKALAEASKHTAHGARKRHMSFVGKLMRVQDLDAIHALLEQMDSSTRQYNERFHSLERWRDRLIDGNDEDLERFVNEYPDTDRQQLRSLVRHAQHEKARNKPPAAARKVFKYIRDLDELQRGLR
  binding: binds
